Data taken from PMC8751585.
No constants are given. Whether binding was seen depends on the method and setting. Binding seen in cells or lysates may run through a third protein. Some binding calls cover weakened binding; strength is not graded here.

The chains behind the UniProt entries cited, without tags or fusion partners.
UniProt P51858: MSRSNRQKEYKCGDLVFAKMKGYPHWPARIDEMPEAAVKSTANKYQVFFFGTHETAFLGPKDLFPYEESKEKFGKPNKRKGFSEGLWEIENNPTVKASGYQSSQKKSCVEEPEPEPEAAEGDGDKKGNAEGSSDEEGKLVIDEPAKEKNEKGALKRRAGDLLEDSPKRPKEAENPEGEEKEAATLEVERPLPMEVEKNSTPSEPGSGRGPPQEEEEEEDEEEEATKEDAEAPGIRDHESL
UniProt P05412: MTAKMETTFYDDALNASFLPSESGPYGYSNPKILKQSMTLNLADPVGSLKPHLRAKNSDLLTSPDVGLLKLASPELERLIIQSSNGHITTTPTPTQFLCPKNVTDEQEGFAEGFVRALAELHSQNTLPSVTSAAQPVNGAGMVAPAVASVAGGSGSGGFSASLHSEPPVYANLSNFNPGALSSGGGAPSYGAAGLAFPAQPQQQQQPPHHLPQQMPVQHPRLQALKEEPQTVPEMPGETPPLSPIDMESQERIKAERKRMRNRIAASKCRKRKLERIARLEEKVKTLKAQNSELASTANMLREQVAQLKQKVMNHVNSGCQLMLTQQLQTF

Target: hepatoma-derived growth factor (HDGF) (human (endogenous in U87 and LN229)) (UniProt P51858)
Assay: co-IP; endogenous proteins; U87 and LN229 cells lysed in Pierce IP Lysis buffer with protease and phosphatase inhibitors; Pierce co-IP kit; 10 ug anti-HDGF, anti-NAP1L1, anti-c-Jun or normal rabbit IgG with 5 mg protein overnight; western blot

binding: binds
Substance: c-Jun (from UniProt P05412 1-331)
